Assay results reported in publication PMC11557686.
Results are given in words; binding and its absence hold for the method and conditions named. Binding seen in cells or lysates may run through a third protein. For some assays here: Binding can be weak; no strength is given. For some assays here: Tags and fused reporters may be left off the sequences shown. One block for each binder: values may come before it.

By UniProt entry, the sequences of proteins in these tests, tags left out. Where a name states a change or a piece, a line headed by the entry shows the natural chain unless it says otherwise.
UniProt Q8NBP7: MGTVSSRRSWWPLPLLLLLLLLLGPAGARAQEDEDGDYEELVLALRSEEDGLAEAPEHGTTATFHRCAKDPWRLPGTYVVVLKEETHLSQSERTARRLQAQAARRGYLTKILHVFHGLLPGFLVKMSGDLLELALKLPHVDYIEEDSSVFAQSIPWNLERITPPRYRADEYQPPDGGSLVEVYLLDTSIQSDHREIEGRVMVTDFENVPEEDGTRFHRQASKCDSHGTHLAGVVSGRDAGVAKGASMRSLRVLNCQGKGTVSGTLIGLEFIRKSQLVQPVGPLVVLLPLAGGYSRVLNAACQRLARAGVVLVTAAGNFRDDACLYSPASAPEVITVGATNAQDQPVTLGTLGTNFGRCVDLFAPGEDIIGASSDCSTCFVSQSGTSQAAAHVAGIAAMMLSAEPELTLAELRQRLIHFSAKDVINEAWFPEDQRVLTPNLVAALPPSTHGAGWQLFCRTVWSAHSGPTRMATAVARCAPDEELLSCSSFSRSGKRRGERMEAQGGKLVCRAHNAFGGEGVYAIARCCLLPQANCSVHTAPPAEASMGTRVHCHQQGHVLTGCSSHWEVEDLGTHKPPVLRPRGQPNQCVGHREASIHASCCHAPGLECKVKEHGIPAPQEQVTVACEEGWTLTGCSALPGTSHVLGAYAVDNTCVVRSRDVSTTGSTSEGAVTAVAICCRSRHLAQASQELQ

Tests used:
[1] = molecular target: SP-HA-TMED10 GOLD domain deletion mutant (UniProt P49755); test: cross-linking + co-IP; HEK TREx-293 TMED10 KO cells co-transfected; 0.2 mM DSP in PBS with 0.2 mM CaCl2, RT 30 min; lysis in 1.0% Triton X-100, 150 mM NaCl, 2 mM CaCl2, pH 7.5; anti-HA agarose or anti-V5 on Protein G Sepharose; immunoblot
PCSK9-V5 = PCSK9-V5 (UniProt Q8NBP7); test: as above

- binding [1]: no binding
B1: endogenous Cab45 (protein, UniProt Q9BRK5 37-362)
chain: RPANHSSTRERVANREENEILPPDHLNGVKLEMDGHLNRGFHQEVFLGKDLGGFDEDAEPRRSRRKLMVIFSKVDVNTDRKISAKEMQRWIMEKTAEHFQEAMEESKTHFRAVDPDGDGHVSWDEYKVKFLASKGHSEKEVADAIRLNEELKVDEETQEVLENLKDRWYQADSPPADLLLTEEEFLSFLHPEHSRGMLRFMVKEIVRDLDQDGDKQLSVPEFISLPVGTVENQQGQDIDDNWVKDRKKEFEELIDSNHDGIVTAEELESYMDPMNEYNALNEAKQMIAVADENQNHHLEPEEVLKYSEFFTGSKLVDYARSVHEEF

- binding (PCSK9-V5): binds
B2: SP-HA-TMED10 WT (protein, UniProt P49755 32-219)
chain: ISFHLPINSRKCLREEIHKDLLVTGAYEISDQSGGAGGLRSHLKITDSAGHILYSKEDATKGKFAFTTEDYDMFEVCFESKGTGRIPDQLVILDMKHGVEAKNYEEIAKVEKLKPLEVELRRLEDLSESIVNDFAYMKKREEEMRDTNESTNTRVLYFSIFSMFCLIGLATWQVFYLRRFFKAKKLIE
